Laboratory results: PMC4805545
No constants are given. Whether binding was seen depends on the method and setting. In cells and extracts the contact can be indirect. A yes stands for co-enrichment or nearness to the bait. Other partners may have been found. For part of these data: Sequences can lack the tags named with a protein. Values belong to the molecule of their own block, whether it stands above or below them.

Protein sequences, listed by entry. Tags and fused reporters are not part of them. Residues count along the entry.
UniProt P11046, residues 25-1788: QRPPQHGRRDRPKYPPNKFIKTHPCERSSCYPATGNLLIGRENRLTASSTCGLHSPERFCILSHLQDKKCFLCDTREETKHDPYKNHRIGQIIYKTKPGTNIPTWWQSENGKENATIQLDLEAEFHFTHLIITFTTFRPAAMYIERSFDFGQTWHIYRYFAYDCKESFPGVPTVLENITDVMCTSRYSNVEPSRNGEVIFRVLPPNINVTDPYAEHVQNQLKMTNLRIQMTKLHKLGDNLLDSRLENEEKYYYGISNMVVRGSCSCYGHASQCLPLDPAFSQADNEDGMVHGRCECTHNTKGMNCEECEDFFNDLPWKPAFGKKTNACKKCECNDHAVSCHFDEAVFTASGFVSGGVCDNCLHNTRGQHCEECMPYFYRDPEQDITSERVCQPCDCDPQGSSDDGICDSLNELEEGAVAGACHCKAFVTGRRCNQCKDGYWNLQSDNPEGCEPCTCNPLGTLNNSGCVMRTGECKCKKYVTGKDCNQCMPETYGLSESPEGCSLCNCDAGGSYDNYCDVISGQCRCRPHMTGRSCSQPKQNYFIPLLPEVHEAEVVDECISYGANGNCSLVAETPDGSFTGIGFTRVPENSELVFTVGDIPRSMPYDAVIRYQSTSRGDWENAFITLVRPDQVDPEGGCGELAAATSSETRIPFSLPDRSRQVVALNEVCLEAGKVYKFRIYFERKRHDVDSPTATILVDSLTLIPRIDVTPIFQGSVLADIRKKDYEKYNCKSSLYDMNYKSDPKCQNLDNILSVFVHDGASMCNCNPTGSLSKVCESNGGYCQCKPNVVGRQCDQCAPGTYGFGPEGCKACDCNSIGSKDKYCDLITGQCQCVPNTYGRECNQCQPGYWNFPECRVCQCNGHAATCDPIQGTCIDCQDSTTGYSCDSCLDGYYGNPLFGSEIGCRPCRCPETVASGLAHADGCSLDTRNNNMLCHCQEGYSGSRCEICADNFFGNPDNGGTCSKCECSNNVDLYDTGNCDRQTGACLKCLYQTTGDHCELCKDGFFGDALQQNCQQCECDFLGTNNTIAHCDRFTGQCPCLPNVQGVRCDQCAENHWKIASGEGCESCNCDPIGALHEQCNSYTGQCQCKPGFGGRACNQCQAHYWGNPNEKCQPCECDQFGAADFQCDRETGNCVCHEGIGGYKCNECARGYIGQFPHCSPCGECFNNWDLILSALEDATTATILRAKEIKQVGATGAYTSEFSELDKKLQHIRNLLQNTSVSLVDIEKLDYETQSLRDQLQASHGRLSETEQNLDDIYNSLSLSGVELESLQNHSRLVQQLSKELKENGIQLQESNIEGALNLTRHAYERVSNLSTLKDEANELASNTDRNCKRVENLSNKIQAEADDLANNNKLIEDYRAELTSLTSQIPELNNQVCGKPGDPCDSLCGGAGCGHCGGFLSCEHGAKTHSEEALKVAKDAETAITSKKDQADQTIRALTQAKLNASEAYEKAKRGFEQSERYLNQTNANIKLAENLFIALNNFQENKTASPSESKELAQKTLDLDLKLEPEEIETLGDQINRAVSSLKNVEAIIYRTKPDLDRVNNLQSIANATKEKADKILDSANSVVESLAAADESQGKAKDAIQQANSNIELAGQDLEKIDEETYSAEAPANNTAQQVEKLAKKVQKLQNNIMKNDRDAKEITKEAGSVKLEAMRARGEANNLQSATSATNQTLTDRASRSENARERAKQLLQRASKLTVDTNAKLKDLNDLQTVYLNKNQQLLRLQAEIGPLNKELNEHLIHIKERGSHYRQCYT
UniProt P15215, residues 34-1639: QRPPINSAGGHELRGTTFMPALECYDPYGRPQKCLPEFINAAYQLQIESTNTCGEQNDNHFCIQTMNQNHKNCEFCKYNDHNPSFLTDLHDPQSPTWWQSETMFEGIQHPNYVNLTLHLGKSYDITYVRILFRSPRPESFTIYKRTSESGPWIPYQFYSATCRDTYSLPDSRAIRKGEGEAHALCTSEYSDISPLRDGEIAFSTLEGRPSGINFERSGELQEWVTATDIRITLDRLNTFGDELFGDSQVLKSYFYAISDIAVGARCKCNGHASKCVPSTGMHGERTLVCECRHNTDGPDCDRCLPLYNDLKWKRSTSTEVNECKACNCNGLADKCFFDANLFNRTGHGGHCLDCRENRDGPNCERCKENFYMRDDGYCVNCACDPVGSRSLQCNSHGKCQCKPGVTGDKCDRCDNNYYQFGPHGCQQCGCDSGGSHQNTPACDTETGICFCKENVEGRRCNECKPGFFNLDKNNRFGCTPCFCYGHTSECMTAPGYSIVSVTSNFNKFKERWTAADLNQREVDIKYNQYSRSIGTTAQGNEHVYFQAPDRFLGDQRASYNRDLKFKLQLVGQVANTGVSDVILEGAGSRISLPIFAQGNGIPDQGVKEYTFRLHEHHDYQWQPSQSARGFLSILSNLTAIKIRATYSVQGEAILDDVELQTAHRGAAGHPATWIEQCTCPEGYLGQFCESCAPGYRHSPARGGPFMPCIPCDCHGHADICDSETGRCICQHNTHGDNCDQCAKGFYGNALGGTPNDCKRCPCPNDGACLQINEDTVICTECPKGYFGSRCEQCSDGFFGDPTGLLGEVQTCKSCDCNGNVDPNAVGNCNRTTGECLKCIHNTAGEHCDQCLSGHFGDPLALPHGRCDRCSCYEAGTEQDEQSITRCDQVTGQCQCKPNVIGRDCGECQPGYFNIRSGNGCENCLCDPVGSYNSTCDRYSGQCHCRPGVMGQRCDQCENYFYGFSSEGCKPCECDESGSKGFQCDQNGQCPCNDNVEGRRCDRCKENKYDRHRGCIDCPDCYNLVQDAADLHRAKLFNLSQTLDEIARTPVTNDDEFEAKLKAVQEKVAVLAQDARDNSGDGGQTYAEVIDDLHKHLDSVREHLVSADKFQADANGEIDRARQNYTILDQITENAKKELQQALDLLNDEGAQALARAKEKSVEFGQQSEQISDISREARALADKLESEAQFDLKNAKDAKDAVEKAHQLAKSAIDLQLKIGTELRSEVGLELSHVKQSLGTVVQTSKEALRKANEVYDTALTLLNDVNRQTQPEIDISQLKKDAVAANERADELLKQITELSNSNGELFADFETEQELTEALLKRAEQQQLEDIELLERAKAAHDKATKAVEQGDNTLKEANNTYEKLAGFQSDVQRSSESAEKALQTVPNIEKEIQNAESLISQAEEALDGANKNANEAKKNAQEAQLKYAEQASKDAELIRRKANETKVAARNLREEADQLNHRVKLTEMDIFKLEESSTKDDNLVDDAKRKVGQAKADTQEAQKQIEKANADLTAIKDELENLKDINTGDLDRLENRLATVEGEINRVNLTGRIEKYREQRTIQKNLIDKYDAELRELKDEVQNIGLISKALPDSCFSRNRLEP

Experiments:
[1] = target: LamininB1 (LanB1), GFP-tagged (Drosophila melanogaster) (UniProt P11046); assay: affinity purification with mass spectrometry; single step affinity enrichment of the GFP-tagged bait on magnetic beads pre-coupled to anti-GFP antibodies from cleared lysate of about hundred 24 to 48 hr pupae or hundred adult flies; triplicates; in-column tryptic digestion; label-free quantification (MaxLFQ); wild-type fly strain as control
[2] = target: T1, discs large 1 (Dlg1), GFP-tagged (Drosophila melanogaster) (UniProt P31007); assay: as above
T1 sequence: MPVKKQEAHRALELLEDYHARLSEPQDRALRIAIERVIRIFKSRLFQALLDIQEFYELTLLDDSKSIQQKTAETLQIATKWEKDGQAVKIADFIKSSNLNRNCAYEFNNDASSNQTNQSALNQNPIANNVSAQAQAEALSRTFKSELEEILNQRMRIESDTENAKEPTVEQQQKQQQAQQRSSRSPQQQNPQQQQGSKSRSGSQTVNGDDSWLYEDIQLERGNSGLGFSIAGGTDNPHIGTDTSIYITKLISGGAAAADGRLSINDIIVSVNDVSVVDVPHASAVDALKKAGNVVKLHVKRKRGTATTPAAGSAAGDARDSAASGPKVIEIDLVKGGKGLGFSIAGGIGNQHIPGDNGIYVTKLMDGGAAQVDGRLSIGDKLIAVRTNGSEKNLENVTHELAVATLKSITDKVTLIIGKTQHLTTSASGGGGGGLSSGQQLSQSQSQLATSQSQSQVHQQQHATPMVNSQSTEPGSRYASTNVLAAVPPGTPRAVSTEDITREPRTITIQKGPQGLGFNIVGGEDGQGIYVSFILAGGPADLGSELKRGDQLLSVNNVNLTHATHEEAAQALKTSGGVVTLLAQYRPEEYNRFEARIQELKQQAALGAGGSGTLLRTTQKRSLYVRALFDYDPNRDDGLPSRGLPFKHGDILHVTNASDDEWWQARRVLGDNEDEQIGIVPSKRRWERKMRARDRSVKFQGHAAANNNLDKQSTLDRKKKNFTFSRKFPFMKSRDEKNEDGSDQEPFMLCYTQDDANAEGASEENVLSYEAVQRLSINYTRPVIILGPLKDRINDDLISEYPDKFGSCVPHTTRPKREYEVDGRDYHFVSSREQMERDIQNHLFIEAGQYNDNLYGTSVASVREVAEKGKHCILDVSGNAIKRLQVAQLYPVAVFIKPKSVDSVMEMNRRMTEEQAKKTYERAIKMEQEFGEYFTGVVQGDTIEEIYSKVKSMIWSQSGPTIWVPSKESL

- binding [1]: binds
Molecule: LamininA (LanA) (from UniProt Q00174 23-3712)

- binding [1]: binds
Molecule: LanB2 (from UniProt P15215 34-1639)

- binding [2]: binds
B1: Mesh (protein, UniProt Q0KHY3 22-1454)
chain: NENISTEEFEDQIINAVPEPVKVTKPKAQAEFVEVPKATPAPKKAEADNPKTKPLALQKPTLIPVVHVSSRGTDDILTVAGLKPEKMFGALIMPNDYLGELYDVDNSGYNWDPNNNVAPPTTYSTAAGGYTITAARLAELRSNFMYWYFDKDMYGGRGDYQFDIHASMTQLHKNLNFQLPFYGFRFNYTRLSLNGYLEFSDPPEYLTYPLVFPIKDWPAKRDPSFMGIFFSKCRVGRIYPSDIDQRTPGVYFRVERDLMGRTDRFGVEVRERTMWDIRQGVVGADTFIPKHVVIATWKNVSFAGGIDNSLYTTNTFQMVLATDEVYTYIIFNYAVLNWLSHTEAGGDTTKGEGGVPAYVGFNAGNGTQAYEYNPYSQNMVIRDLANRGWANGFPGRHIFRVDEQILIGSCNKDIDAALLPLTFAPESGNMLGGQVVNITGPCFDPAIRVTCHFDTESVLGTYVDRNRVICVQPYLKAEGYIRFQISVGTQRFKWRGKYFVETPAAATEKIFFTTDDVHKKNPAEIRITWNQYNLTSNANANVMISLWGYRETKIEPQLEYIDVIEASYSNSGSYVITPSNYINRNNINRDMQFGFLQINLTQPDQYSGLAISPVLWSRPIPLAWYMAPQWERQHGKRWARALCDNWIRADRFLRNFAADLPLCPCTLDQAVLDKGRFRPDRECDKDSNPSCLRHRGAIHCVVSGTPVAQGAEQQCCYDRYGFLMLTYDQMWGSRPRRVHNLGKMPWNEASKVPSLSMWFHDMRPFYSCCYWQEEQAVGCETYRFERRPSQDCVAYQAPGIAGVFGDPHFVTFDGTAYTFNGLGEFVLARSVDESNKFEVQGRFEQLPVNYYGEVKATQLTAVAMRGNTTTTIEVRLRPLHARWRYRLDVLADGRRVYFDRESLKFQHFDGVTVYTPTYLLNQSQVVVQFDAGIGVEVVENEGYMTGRVFLPWKFINKTAGLFGNWSFNKLDDFMLPNGQVAQLNLNDLRSIHTNFGIKWMLTDREVPGVGAALFKREFGRMSGYYANATFQPNYVLDPADFLPANRSYDLERAEELCGECMQCQYDYAMTLNRDLAHFTKNYYDTIVNMQAENAVRVVSCGVLQTPRFGRKLSFDFMPGAKVSFECNEGFILIGDQRRECLSNGLWNIPEYGYTECLREVYYTRRVAFIAIGIIFLVICPLMLCIVCGVYRYRQKQLKEDPQWQMPMLPRSRASSARNLRTLNYDDDSDTDASTLKKSRSYDKVYRTNEPLPGKPQIDFPAKKWDLDENDEDVTSSEGEKPKQLGRRSLHSASGTELDQHGSPVDGDHPDEDDDFDEADVHTGTTHPVGYHQPLSPEEADQLHRQQYSPTFSGLDSRTSGASSINYTPQAATQNRFGGVPVLPSNTQYYSRPPSSVNTVPLRTAPTPLTQDTGLPSPPLATSPTPSVQKSTEV
